Over roughly 33,000 sequences, “E-score (-0.5 to 0.5)” has its median near -8e-05; the highest 2% begin near 0.23. The list shows a part of the results.
Molecular target: T1, Nrg2 (UniProt P38082)
T1 sequence: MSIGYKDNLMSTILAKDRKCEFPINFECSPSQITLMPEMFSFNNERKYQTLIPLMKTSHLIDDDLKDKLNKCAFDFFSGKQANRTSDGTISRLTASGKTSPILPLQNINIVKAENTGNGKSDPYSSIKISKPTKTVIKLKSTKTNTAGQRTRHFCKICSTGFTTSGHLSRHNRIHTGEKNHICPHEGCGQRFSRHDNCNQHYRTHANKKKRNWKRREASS
Test: PBM E-score (8-mer binding enrichment) (E-score (-0.5 to 0.5)); higher = stronger / more preferred TF binding
Settings: protein concentration: 100 nM; construct: GST-full length
Protocol: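 Universal 'all 10-mer' protein binding microarrays (Agilent AMADID 015681) probed with GST-tagged S. cerevisiae TFs (full-length or DBD) made by in vitro transcription/translation (PURExpress), about 100-200 nM. Bound TF was detected with fluorescent anti-GST. Each ungapped 8-mer (which stands for itself and its reverse complement) is scored by the PBM enrichment score (E-score), a modified Wilcoxon-Mann-Whitney statistic from -0.5 to +0.5, computed with the Universal PBM Analysis Suite. Scale: above 0.35 generally sequence-specific binding.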

Sequence | PBM E-score
CGCTAGAC | -0.214
CGCCGGCG | 0.0628
CATTAAAG | 0.119
ACAACACC | 0.0571
AATCGGGT | 0.195
CAGTCGTA | -0.0735
GGCCCCCC | -0.347
GAAATAGA | 0.136
GAAGTACC | 0.129
GTCTCGCA | -0.17
AGACCGTC | -0.104
CCTCCGCG | -0.0794
AAAGTACC | 0.0228
TATAGAAA | 0.0376
ATAGCCAC | 0.113
CCGATGTA | -0.111
CTTCTACC | -0.175
ACATAGGC | 0.0492
CTGCGGCC | -0.0367
CTGCGGGC | -0.0348
ACTATAGT | 0.208
AATATCAG | 0.162
GTTCGCAA | 0.123
ATCGAAAA | 0.0461
AACCTTCC | -0.0967

Sequence | PBM E-score
CTGAAATA | 0.0883
CAGAAACG | 0.0864
GCGTCACC | -0.236
TAATTACA | 0.0753
AAAGTTTA | 0.0807
GATGAAAC | 0.219
CGGGCGCA | -0.0283
GGTTTACA | 0.0723
AGCGGGGC | -0.148
AGCGAATG | -0.12
ACCATACG | -0.0219
AAGGCCTG | -0.27
ATTAGCTG | 0.0519
AGTAACGC | -0.0294
AAACATGC | -0.042
CTCATGAG | 0.0974
GAACTAGC | 0.0818
CCATAAGA | 0.137
GCTTCAGA | -0.0839
ATCCAAAA | 0.0493
CTCCTCGC | -0.124
ATATGCGG | 0.153
AGCCGCTC | -0.0104
ACGGAGTG | -0.06
AGCGCCAT | -0.111

Sequence | PBM E-score
CAAGTACC | -0.0878
AGGTCGGC | 0.00778
AACTCTAG | -0.0836
AGATCCCT | 0.156
AGCCGCTG | -0.135
CACCTTCA | -0.0868
ACCCGTGA | -0.125
CTGCTAAC | -0.0562
ACCACACC | 0.011
GGGACCCC | 0.164
AAGGAGGT | -0.191
ACTCCAAA | -0.0826
CTTCCCTA | -0.107
ACCATCCC | 0.0369
AGTTGCCA | -0.0533
CCTGTCGA | -0.00079
CTGGTAAC | 0.0868
AAAATGAG | 0.0582
AATGACGG | 0.125
CACTGTGC | 0.0456
CACAGGGG | -0.0405
ATCGCTAG | 0.0625
GGGGAAGA | -0.245
TGCGAACA | -0.0187
AGTAGAAG | -0.0258

Part of the list above in a different format:
CTGGTAAC
  PBM E-score: 0.0868
AAAATGAG
  PBM E-score: 0.0582
AATGACGG
  PBM E-score: 0.125
CACTGTGC
  PBM E-score: 0.0456

Continuation:

Sequence | PBM E-score
AAGACAGT | -0.0479
ACAGGGGC | 0.0717
CCCCGAAC | -0.0702
CAGTGGTA | -0.0969
AAGGGGAA | -0.201
ATAAGCGG | -0.0586
AATCTGGG | -0.13
GCACCCAC | 0.098
AACAGACT | 0.0725
AGCTAGGA | 0.0833
ACTAGGAT | -0.0878
CCCGTACC | -0.0377
CAGTTAGC | -0.155
AACGATCA | -0.144
AAACTGAG | -0.0822
GTGGCCGA | -0.025
GTGGATTA | 0.0668
AGCAGGAC | 0.0159
CACTCAGA | 0.159
TATGTGGA | 0.134
ATGACCGG | -0.241
GATTCTCC | -0.0747
AGTATTTC | 0.122
CCCCTGAC | 0.235
CCCTTCAA | -0.0779

Sequence | PBM E-score
AAACTCGT | 0.131
AAATCGGT | -0.173
TAGGAGAA | -0.208
ACTCGAGC | 0.073
CGGCGGGC | 0.0159
ACGCTGGG | -0.193
GGTAGTTA | 0.0019
GTGATTCA | 0.0815
CGTAATTA | 0.041
GGAGTCGA | -0.065
CGTACGAC | -0.248
CAGATCAC | -0.109
CGATGGAG | -0.0647
ACTGGGAT | -0.0295
ACATATAC | 0.034
CGGCAGGC | -0.196
AGGCAAGG | -0.259
ATGGACGG | -0.00375
CACCGTGG | -0.154
CAGTCCGC | -0.156
GGCTGCGA | -0.145
AGCTAAAG | -0.141
CATCAAAG | -0.0279
ACTACGTG | -0.22
AAACTATA | 0.0775

Individual results from the results shown:
PBM E-score, AAACTATA is entered as 0.0775
PBM E-score, AAATCGGT is entered as -0.173

More results:

Sequence | PBM E-score
AAACCTTA | 0.0529
ACGACGCC | -0.203
ATGCGAGA | -0.0118
CCGCTGCC | -0.109
CAAATACC | -0.0494
CGCGTCAA | -0.0451
ATCGTGAG | 0.0132
AGCCAAAC | 0.121
CGAATCTC | -0.00192
ATACTAAA | 0.234
CAATCGGG | -0.00241
CTGCGTCC | -0.0464
GGCTTTAA | -0.0395
GAGATCTC | 0.095
ATCCTGTA | -0.0537
AGCAAATG | 0.0488
GGCATTAC | 0.117
TAGAGACA | -0.125
TATGTAGA | 0.00754
AGATGAGC | 0.00437
CATGCAAG | 0.088
CACGAGGA | 0.0348
CCGAGCTA | -0.0408
ATGGTGGC | -0.337
GAGTCATA | -0.106

For reference, some entries already given.
Sequence | PBM E-score
CCGCTGCC | -0.109
CAAATACC | -0.0494
CGCGTCAA | -0.0451

Carrying on.

Sequence | PBM E-score
ATATTTAC | 0.0835
AAAAGTGA | 0.162
GGAACGGA | -0.0562
AGTAACAA | 0.0385
CGCCTACA | 0.0409
CGCCTAGC | -0.315
GCACGCAA | -0.154
GGAATATA | 0.226
CTACAGAG | -0.106
AAACGGCT | -0.0934
AAGTGAAG | 0.119
ATGGAGTG | -0.118
ACTATCAT | 0.0714
AGTTCACA | 0.0346
AGGTTAGA | -0.149
TCAATCAA | 0.0432
CGTATATC | 0.00015
ACCGCAAC | 0.269
ATCCCCCC | -0.386
CTCAGGCC | -0.257
CGTGCCTA | -0.0338
ACTCCGCT | -8e-05

Reference: the supplement of paper PMC3334620
